This passage reports binding results from paper PMC11233601.

Where a chain is given by its changes, count along the chain named. Results are given in words; binding and its absence hold for the method and conditions named. Binding seen in cells or lysates may run through a third protein. Some binding calls cover weakened binding; strength is not graded here. For some assays here: Sequences can lack the tags named with a protein.

Experiment [1] deals with T1, GST-p107-R1R2 (human) (UniProt P28749).
T1 sequence: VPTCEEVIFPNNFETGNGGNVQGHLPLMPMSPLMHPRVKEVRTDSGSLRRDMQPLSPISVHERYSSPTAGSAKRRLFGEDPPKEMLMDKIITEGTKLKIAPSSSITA
The experiment in a line: affinity by depletion (GST pull-down, B55α left in the supernatant); selected concentrations of GST-fusion proteins on beads with 100 µg HEK293T lysate in 100 µl overnight; supernatant blotted for B55α and GAPDH; approximate affinity at equilibrium; only the target purified.

In experiment [2] the target is T2, FAM122A_(L70-K86) peptide fused to GST (murine) (UniProt Q9DB52).
T2 sequence: LPASPVRMHSSRLHQIK
The experiment in a line: pull-down; GST-FAM122A, deletion and mutant constructs (or GST-p107-R1R2) on glutathione beads incubated with HEK293T lysates 3 h or overnight at 4 °C, 4 washes with DIP lysis buffer, western blot; only the target purified.

Experiment [3] deals with GST-FAM122A full length (murine) (UniProt Q9DB52). The experiment is described as above.
The target of experiment [4] is T1, GST-p107-R1R2 (human). The description is as above.
Experiment [5] has as its target murine FLAG-FAM122A wild type (murine) (UniProt Q9DB52). Description: co-IP; HEK293T transfected with FLAG-mFAM122A WT and helix tolerant and breaker mutants; anti-FLAG IPs analysed for endogenous B55α by western blot.
Experiment [6] deals with T3, murine FLAG-FAM122A H83G Q84G (murine) (UniProt Q9DB52).
T3 sequence: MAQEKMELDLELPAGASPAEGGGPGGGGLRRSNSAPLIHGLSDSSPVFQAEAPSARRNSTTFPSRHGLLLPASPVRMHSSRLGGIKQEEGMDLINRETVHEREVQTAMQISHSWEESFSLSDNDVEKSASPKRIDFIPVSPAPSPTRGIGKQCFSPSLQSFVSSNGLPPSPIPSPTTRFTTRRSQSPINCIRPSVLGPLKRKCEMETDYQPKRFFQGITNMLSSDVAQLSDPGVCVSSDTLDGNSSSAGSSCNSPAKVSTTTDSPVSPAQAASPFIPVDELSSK
Described as above.

In experiment [7] the target is T4, murine FLAG-FAM122A H83A Q84A (murine) (UniProt Q9DB52).
T4 sequence: T3 sequence with G83A, G84A
The description is as above.

Experiment [8] deals with T5, murine FLAG-FAM122A H83P Q84P (murine) (UniProt Q9DB52).
T5 sequence: T3 sequence with G83P, G84P
The description is as above.

B1: B55α, endogenous in HEK293T lysate (protein, UniProt P63151 1-447)
chain: MAGAGGGNDIQWCFSQVKGAVDDDVAEADIISTVEFNHSGELLATGDKGGRVVIFQQEQENKIQSHSRGEYNVYSTFQSHEPEFDYLKSLEIEEKINKIRWLPQKNAAQFLLSTNDKTIKLWKISERDKRPEGYNLKEEDGRYRDPTTVTTLRVPVFRPMDLMVEASPRRIFANAHTYHINSISINSDYETYLSADDLRINLWHLEITDRSFNIVDIKPANMEELTEVITAAEFHPNSCNTFVYSSSKGTIRLCDMRASALCDRHSKLFEEPEDPSNRSFFSEIISSISDVKFSHSGRYMMTRDYLSVKIWDLNMENRPVETYQVHEYLRSKLCSLYENDCIFDKFECCWNGSDSVVMTGSYNNFFRMFDRNTKRDITLEASRENNKPRTVLKPRKVCASGKRKKDEISVDSLDFNKKILHTAWHPKENIIAVATTNNLYIFQDKVN
Regarding B1, the binding entry with GST-p107-R1R2 (human) [1] is reported as “binds”; in experiment [2], “no binding”; in experiment [3], “binds”; with GST-p107-R1R2 (human) [4], “binds”; in experiment [5] it was “binds”; in experiment [6], “no binding”. Further, the figures for the binding result in experiment [7] and in experiment [8] were “binds” and “no binding”, respectively.
